Data published in PMC9953269, “In Vivo Acute Toxicity Studies of Novel Anti-Melanoma Compounds Downregulators of hnRNPH1/H2” (Biomolecules, 2023).

Tested on: various cell types (liver, lung, breast, brain, skin, ovary, primary melanocytes, primary keratinocytes)
Test: General cytotoxicity against cell lines and primary cells from different tissues
Format: cell-based
Details: TC50 versus melanoma IC50

Structure (SMILES) | in vitro therapeutic index (TI)
O=C1NC[C@H](Cc2ccccc2)N(C[C@@H]2CCCN2C[C@@H](CC2CCCCC2)N2C[C@H](Cc3ccc(O)cc3)N(CCc3ccccc3)C(=O)C2=O)C1=O [Compound 2155-14] | ~ 10
O=C1NC[C@H](Cc2ccccc2)N(C[C@@H]2CCCN2C[C@H](Cc2ccccc2)N2C[C@H](Cc3ccc(O)cc3)N(CCC34CC5CC(CC(C5)C3)C4)C(=O)C2=O)C1=O [Compound 2155-18] | ~ 10
